## Library screen at single concentrations

From ChEMBL document CHEMBL3988442, “University of Dundee, Small-Polar-MMV Screening Library” (2021).

Each number is a percent effect as filed. The record does not define 0% and 100%; most values in the screen are far below 50% and negative numbers occur (in some assays of this library far below -100). The compounds are a random part of those screened.

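Whole-parasite assay of Trypanosoma brucei over 72 hours; the read-out is not stated. Tested at 30 µM. The record gives no direction; compounds that gave an IC50 in retests scored well above the rest, so higher reads as stronger inhibition. Values scatter widely below zero; nearly all retest evidence comes from the higher of the two concentrations used. About 64,000 compounds were tested under these conditions; 1.5% (about 940) showed 50% or more at least once.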

Compound	percent effect
Cc1cc(C)n(CC2CN(CC(=O)Nc3ccncc3)CCO2)n1 (centres unmarked)	-1.377
Cc1ccc(C(NC(=O)[C@H]2CC[C@@H](O)CC2)c2cccnc2)cc1C (some centres unmarked)	31.46
NC(=O)c1cccc(OCC(=O)N2CCCC(n3ccnc3)C2)c1 (centres unmarked)	-6.525
Cc1ccccc1OCCN(C)C(=O)NC(C)c1nncn1C (centres unmarked)	12.55
O=C(c1ccccc1-n1cnnn1)N1CCC2(CC1)OCCO2	-25.19
Cc1cc(C[S+]([O-])CC(=O)NCC(C)C)no1 (centres unmarked)	-0.944
CCOc1cncc(N2CCN(c3ccccc3F)CC2)n1	12.83
CN(CCCNC(=O)c1cccc(OCC(N)=O)c1)CC(F)(F)F	-9.59
COc1ccc(F)cc1S(=O)(=O)N1CCN(CCn2ccnc2)CC1	-34.76
CC(C)(CO)NCc1ccc(OCc2ccc3c(c2)OCCO3)cc1.Cl	-36.69
CCCN1CCCn2nc(CNS(=O)(=O)c3cccc(F)c3)cc2C1	-10.52
CC1N(CC2CC2)C(=O)COC12CCN(Cc1nccs1)CC2.O=C(O)C(F)(F)F (centres unmarked)	-13.83
Cn1cnc(S(=O)(=O)NCCN2CCCCCC2)c1Cl	-0.8661
Cc1c[nH]c(CN2CCCCC2CCc2cccc(O)c2)c(C)c1=O (centres unmarked)	-53.29
CC(=O)Nc1sccc1C(=O)C(C)(C)C	-18.02
Cc1cccc(OC2CCN(C(=O)c3ccc4ncsc4c3)CC2)n1	31.12
Cc1cnc(CN(C)C2CCN(CCCc3cnn(C)c3)C2)o1 (centres unmarked)	16.07
CS(=O)(=O)c1cccc(S(=O)(=O)NC(=O)CC2CCCCC2)c1	-49.76
CCN(CC1CN(Cc2ccn(C(C)C)n2)CCO1)c1cccnn1 (centres unmarked)	32.21
Cn1cc(CN2CCC3(CC2)CCN(C(=O)c2cscn2)CC3)cn1.O=C(O)C(F)(F)F	-14.76
Cc1ccc(C(O)CNCCn2cccn2)cc1C (centres unmarked)	1.723
Cc1ccc(S(=O)(=O)N2CCC(Oc3cccnn3)CC2)c(C)c1	3.381
COc1c(C(=O)NCC2CCCO2)nnn1Cc1ccccc1 (centres unmarked)	-30.82
Cc1c(CN2CCc3[nH]cnc3C2C(=O)O)[nH]c2ccc(F)cc12 (centres unmarked)	-48.55
Cc1[nH]c2nc(CNc3ccccc3Cl)nn2c(=O)c1C	10.28
CNc1cc(C)nc(N2CCC3(CC2)[C@H](O)C[C@@H]3O)n1	2.241
O=C(O)C(F)(F)F.O=C(O)C(F)(F)F.c1cnc(N2CC3(CCN(Cc4ccncc4)C3)C2)nc1	32.86
O=C(Nc1ccccc1)[C@H]1CN2CCC1C[C@@H]2Cn1cc(CO)nn1 (some centres unmarked)	-6.682
O=C(NC1CCOC1)c1cccc(S(=O)(=O)NCCCc2ncc[nH]2)c1 (centres unmarked)	-27.88
COCC(=O)N1CCC2(CC1)CN(c1cncnc1)C(=O)CO2	46.99
CC(O)CN1CCN(C(=O)c2ccc(Cn3cccc3)cc2)CC1 (centres unmarked)	-16.85
O=C(c1cccc(-c2ccc(F)cc2)c1)N1CCC2(CC1)[C@H](O)C[C@@H]2O	4.141
CN(CCc1ccncc1)Cc1c(C2CCCC2)[nH]c2ncccc12	11.64
CC(C)CCNC(=O)c1ccc(-c2ccco2)[nH]c1=O	16.66
COc1ccc(C2CCN(C(=O)c3ncccc3OC(C)C)C2)cc1 (centres unmarked)	-13.09
O=C(NC1CCCN(Cc2c(F)cccc2F)C1)c1cnccn1 (centres unmarked)	-48.35
Cc1nccn1Cc1nnc(C2CCCN(Cc3ccncc3)C2)n1C (centres unmarked)	8.129
[H][C@]1([C@H](O)c2ccc(NC(=O)c3cccc(C#N)c3)cc2)COCC(=O)N1	-15.65
Cc1ccccc1CSc1nc(=O)n(CCO)c2c1CCC2	28.37
COCc1noc(CN2C[C@H](C3CC3)[C@@H](N(C)C)C2)n1	-11.99
Cc1ccsc1CN1CCC(c2cc(C(C)C)n[nH]2)CC1	-45.43
Cc1cc(C(=O)NCc2cnn(C)c2C)nc(N2CCCCCC2)n1	27.98
O=C(O)C(F)(F)F.O=C(O)C(F)(F)F.c1csc(CN2CCC3(COCCN(CC4CC4)C3)C2)n1 (centres unmarked)	-38.1
Cc1ccc(CNC2(Cc3cc(-c4ccccc4)on3)COC2)o1	-1.081
Cc1cccc(C(=O)N2CCn3cc(CN4CCCCC4)nc3C2)n1	-131.2
O=C(Cn1cccnc1=O)NC(Cc1cccs1)c1ccccn1 (centres unmarked)	19.29
COCC(=O)N1CCOC(c2cccc(-c3cncnc3)n2)C1 (centres unmarked)	-5.456
Cc1nn(C)c(N(C)C)c1CNCc1cccc(Cn2ccnc2)c1	5.835
[H][C@@]12CS(=O)(=O)C[C@]1([H])N(S(=O)(=O)N1CCCC1)CCN2Cc1ccccc1	-24.65
CCn1ccnc1CN1CCCN(C(=O)C2(C#N)CCCCC2)CC1	-31.77
CC(C)(O)CN1CCN(C(=O)c2ccn(-c3cccc(F)c3)n2)CC1	-14.88
CNC(=O)c1cnc(/C=C/c2ccc(O)c(OC)c2)s1	-21.77
COCCC(=O)NCCc1nc2cc(-c3ccc(OC)cc3)ncn2n1	-14.45
COc1ncc(NCc2ccc(Cl)c(Cl)c2)cc1C(N)=O	-38.87
COc1cc(CNCC(O)c2ccccc2)cc2c1OCO2.Cl (centres unmarked)	51.8
O=C(c1nn(-c2ccccc2F)cc1O)N1CCCC1	15.33
COCCC(=O)N1CCN(CC(C)C)c2nc(C)ccc2C1.O=C(O)C(F)(F)F	-23.32
COc1cccc(CCn2ccnc2-c2cn(C3CCNCC3)nn2)c1	-24.35
O=C(NCc1cccnc1N1CCCC(O)C1)c1ccsc1 (centres unmarked)	-23.94
CCCN1CCC(c2nc3ccc(-c4cccc(OC)c4)cn3n2)CC1.O=C(O)C(F)(F)F	26.55
O=C(NCCCNCC1CNc2ccnn2C1)c1ccccc1 (centres unmarked)	-13.12
O=C(O)C(F)(F)F.OCCOCc1n[nH]c2c1CN(Cc1ccccn1)C2	-3.014
Cc1cc2cc(CNC(=O)c3cnn4c3OCCC4)ccc2[nH]1	16.35
COCCN1CCOCC2(CCCN(Cc3ccc(C)o3)C2)C1.O=C(O)C(F)(F)F.O=C(O)C(F)(F)F (centres unmarked)	24.77
O=C(N1CCOCC1)N1CCC2(CC1)CN(c1ccccn1)CCO2	24.39
O=C(Cc1ccsc1)N1CCC(c2noc(-c3cccnc3)n2)CC1	-8.921
[H][C@@]12CN(C(=O)c3ccoc3)C[C@]1([H])CN(c1ncccn1)C2	-12.13
[H][C@@]12COC[C@]1(COc1cccnc1)CN(C(=O)Cc1ccsc1)C2	-65.26
COc1ccc2c(ccn2CCCN)c1.O=C(O)C(=O)O	0.08661
CCC[C@@H]1CN(C(=O)c2ccccc2-c2ccccc2)C[C@H]1N(C)C	-65.53
CCc1nc(CN2CCCCC2C(N)=O)cs1 (centres unmarked)	10.36
Cc1cc(C[C@@H]2CCC[C@H]2NCc2ccccc2C(F)(F)F)on1.O=C(O)CC(O)(CC(=O)O)C(=O)O	11.29
C[S+]([O-])c1nncn1CC(=O)c1cccc(Cl)c1 (centres unmarked)	0.9934
Cc1cc(C(=O)N2CCCC(C(=O)c3cccs3)C2)c(=O)[nH]c1C (centres unmarked)	1.878
CC(=O)c1cccc(NC(=O)NCCOCC2CC2)c1	14.3
Cc1nc(C2CCCN(C(=O)CCCn3cccn3)C2)no1 (centres unmarked)	10.87
Cc1nc(NCC2CC2)nc2c1COCC21CCN(CC(=O)N(C)C)C1 (centres unmarked)	-600.4

Some entries from above, unchanged:

Result for O=C(NC1CCCN(Cc2c(F)cccc2F)C1)c1cnccn1 (centres unmarked) was -48.35%.
Result for Cc1cc(C(=O)NCc2cnn(C)c2C)nc(N2CCCCCC2)n1 was 27.98%.
Result for COc1c(C(=O)NCC2CCCO2)nnn1Cc1ccccc1 (centres unmarked) was -30.82%.
Result for CCc1nc(CN2CCCCC2C(N)=O)cs1 (centres unmarked) was 10.36%.
Result for CN(CCCNC(=O)c1cccc(OCC(N)=O)c1)CC(F)(F)F was -9.59%.